From article PMC11449838
These are yes or no findings as the source states them, for the method shown. In cells and extracts the contact can be indirect. Binding calls can cover weak binding; strength is not graded here. For part of these data: Where a sequence is shown, tags or fusion partners need not be part of it.

Chains of the proteins cited; added tags and fusions are not shown. Lines headed by an entry give the natural chain unless they say otherwise; changes in a name come on top.
UniProt P09038: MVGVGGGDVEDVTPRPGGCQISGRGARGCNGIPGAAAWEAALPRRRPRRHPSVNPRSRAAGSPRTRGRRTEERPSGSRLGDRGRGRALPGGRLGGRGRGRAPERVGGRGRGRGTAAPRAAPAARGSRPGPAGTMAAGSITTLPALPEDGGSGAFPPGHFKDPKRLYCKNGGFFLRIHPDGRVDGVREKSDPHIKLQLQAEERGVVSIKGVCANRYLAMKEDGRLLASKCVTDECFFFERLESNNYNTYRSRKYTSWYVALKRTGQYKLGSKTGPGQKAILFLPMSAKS

Legend:
[1] = target: fibroblast growth factor 2 (FGF2) (human (endogenous in MCF-7)) (UniProt P09038); assay: co-IP; reverse co-IP: MCF-7 cell lysates immunoprecipitated for FGF2 with antibody-coupled agarose beads, Western blot for YTHDF3; IgG as negative control
[2] = target: T1, FLAG-tagged YTHDF3 mutant (W438A, W492A in the YTH domain) (UniProt Q7Z739); assay: co-IP; MCF-7 cell lysates (1 x 10^7 cells), immunoprecipitated by the Flag tag of YTHDF3 with antibody-coupled agarose beads, Western blot for FGF2; IgG as negative control
T1 sequence: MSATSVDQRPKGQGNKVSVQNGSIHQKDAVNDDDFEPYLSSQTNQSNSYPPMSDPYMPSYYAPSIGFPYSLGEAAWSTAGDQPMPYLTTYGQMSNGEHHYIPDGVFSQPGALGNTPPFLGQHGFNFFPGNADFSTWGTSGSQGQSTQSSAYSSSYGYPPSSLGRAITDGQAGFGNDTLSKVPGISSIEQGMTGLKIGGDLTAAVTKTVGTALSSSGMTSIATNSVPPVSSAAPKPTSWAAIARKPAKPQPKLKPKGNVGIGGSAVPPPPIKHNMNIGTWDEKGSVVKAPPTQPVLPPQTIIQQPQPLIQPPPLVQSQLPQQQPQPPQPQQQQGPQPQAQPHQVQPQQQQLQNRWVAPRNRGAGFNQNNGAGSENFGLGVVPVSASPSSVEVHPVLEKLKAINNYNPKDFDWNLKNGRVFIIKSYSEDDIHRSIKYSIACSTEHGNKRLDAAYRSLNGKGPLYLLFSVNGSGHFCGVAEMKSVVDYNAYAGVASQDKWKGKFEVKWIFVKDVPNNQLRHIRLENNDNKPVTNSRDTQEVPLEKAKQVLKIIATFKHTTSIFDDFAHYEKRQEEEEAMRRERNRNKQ

[3] = target: FLAG-tagged wild-type YTHDF3 (YTH N6-methyladenosine RNA binding protein 3) (UniProt Q7Z739); assay: as above

Row | binding [1] | binding [2] | binding [3] | Substance
1 | binds | – | – | FLAG-tagged wild-type YTHDF3 (YTH N6-methyladenosine RNA binding protein 3) (from UniProt Q7Z739 1-585)
2 | – | binds | binds | fibroblast growth factor 2 (FGF2) (from UniProt P09038)
